Laboratory results published in US20240329050A1, “METHODS OF DETECTING PENTASACCHARIDES AND TREATMENT AND MONITORING OF LYSOSOMAL STORAGE DISEASE” (Washington University, priority 2021, published 2024).

Test: Profiling of ganglioside GM1 in human plasma, CSF and urine

For ganglioside GM1, the “CSF level in GM1 gangliosidosis patients versus controls” value (CSF, any ganglioside GM1 species) was “no significant differences”, the “Elevation in plasma of GM1 gangliosidosis patients versus controls” value (plasma, type II GM1 gangliosidosis) was “less than 2 fold” and the Detection in urine (urine) was “undetectable”.
